Assay results: paper PMC6274713
The comparison behind a weaker result is the experiment's own reference, which may not be listed here. Tags and fusion partners may be left off the protein sequences shown.

Tests used:
[1] = biological target: T1, MLL4 3500-3630 (UniProt O14686); assay: MST; conditions: no saturation, stronger than MLL4 4210-4280; recombinant protein; residues 3500-3630; protein details: His tag (implied by HisTrap, pET22b); label: biotin (EMSA), fluorescent (MST)
T1 sequence (looked up): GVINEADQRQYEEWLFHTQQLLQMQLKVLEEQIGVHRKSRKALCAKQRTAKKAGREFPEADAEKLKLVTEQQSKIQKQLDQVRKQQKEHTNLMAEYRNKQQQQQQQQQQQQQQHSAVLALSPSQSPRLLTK

[2] = biological target: T2, MLL4 4210-4280 (UniProt O14686); assay: MST; conditions: no saturation; recombinant protein; residues 4210-4280; protein details: His tag (implied by HisTrap, pET22b); label: biotin (EMSA), fluorescent (MST)
T2 sequence (looked up): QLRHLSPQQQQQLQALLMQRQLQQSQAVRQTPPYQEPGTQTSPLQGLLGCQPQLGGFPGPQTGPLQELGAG

[3] = biological target: T1, MLL4 3500-3630; assay: EMSA; conditions: minor loss of RNA signal at highest protein; EMSA: LightShift RNA EMSA kit protocol, 1 or 2 nM RNA, 30 min at room temperature, 4 or 6% native PAGE; recombinant protein; residues 3500-3630; protein details: His tag (implied by HisTrap, pET22b); label: biotin (EMSA), fluorescent (MST)
[4] = biological target: T2, MLL4 4210-4280; assay: EMSA; conditions: minor loss of RNA signal at highest protein; EMSA: LightShift RNA EMSA kit protocol, 1 or 2 nM RNA, 30 min at room temperature, 4 or 6% native PAGE; recombinant protein; residues 4210-4280; protein details: His tag (implied by HisTrap, pET22b); label: biotin (EMSA), fluorescent (MST)

Measured: binding result

GAAGAAUGGCCUCGCGGAGGCAUGCGUCAUGCUAGCGUGCGGGGUACUCUU [50 nt RNA]
binds more weakly: all assays above
